Measurements published in the supplement of paper PMC6078165.
The reference is the same well before dosing, and untreated signal decays as well.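 Fibroblast labels name human fibroblasts: mostly primary ones from tissues such as uterus (C12385, HUF), lung (H6013), bone (Hs27A), adrenal (HADF) and skin (WS1), plus mammary HMF and breast cancer-associated Hs343T. The cancer cells are basal-like or mesenchymal-like triple-negative breast cancer lines. The paper calls a changed response a hit when it shifts by more than 3x the replicate standard deviation. The tissue of the other fibroblasts is not given here.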

Tested on: Hs578T
Test: relative JC-1 red fluorescence (viability) vs pre-drug, coculture with fibroblast (fraction); higher = more viable cancer cells
Method: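 JC-1 labelled TNBC cells cocultured 1:1 (1,500 cells each) with CellTrace Violet stained primary or stromal fibroblasts in 384-well plates in FluoroBrite medium, treated with one of 42 anticancer drugs at 0.1, 1, 10 or 100 uM. JC-1 red fluorescence (mitochondrial integrity in cancer cells only) was read by plate reader every 8 h for 72 h. Values are normalised to each well's pre-drug value. The stock of one drug was tenfold lower, so its dose labels may be too high.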

CC/C(=C(\c1ccccc1)c1ccc(OCCN(C)C)cc1)c1ccccc1 [Tamoxifen]
relative JC-1 red fluorescence
Details	8 h	16 h	24 h	32 h	40 h	48 h	56 h	64 h	72 h
0.1 µM	0.896	0.79	0.7433	0.7074	0.659	0.615	0.59	0.542	0.524
1 µM	0.8863	0.812	0.777	0.748	0.683	–	–	–	–

relative JC-1 red fluorescence
Details	8 h	16 h	24 h	32 h	40 h	48 h	56 h	64 h	72 h
0.1 µM, coculture fibroblast: C12385	0.815	0.692	0.644	0.554	0.4978	0.463	0.4246	0.416	0.415
0.1 µM, coculture fibroblast: H6013	0.8853	0.7828	0.736	0.72	0.689	0.682	0.666	0.666	0.645
0.1 µM, coculture fibroblast: H6019	0.756	0.672	0.66966	0.58232	0.553	0.529	0.497	0.483	0.464
0.1 µM, coculture fibroblast: H6076	0.947	0.853	0.783	0.757	0.722	0.731	0.713	0.712	0.711
0.1 µM, coculture fibroblast: H6231	0.8834	0.787	0.685	0.641	0.57	0.534	0.481	0.465	0.452
0.1 µM, coculture fibroblast: HADF	0.902	0.791	0.744	0.696	0.663	0.636	0.609	0.605	0.586
0.1 µM, coculture fibroblast: HCFa	0.9066	0.795	0.744	0.696	0.63	0.601	0.566	0.544	0.504
0.1 µM, coculture fibroblast: HCPF	0.911	0.797	0.767	0.741	0.682	0.66	0.64	0.608	0.595
0.1 µM, coculture fibroblast: HHSteC	0.897	0.755	0.686	0.636	0.569	0.527	0.497	0.471	0.437
0.1 µM, coculture fibroblast: HMF	0.864	0.757	0.687	0.666	0.611	0.579	0.546	0.523	0.507
0.1 µM, coculture fibroblast: HPFa	0.90163	0.83	0.754	0.691	0.64	0.596	0.555	0.528	0.485
0.1 µM, coculture fibroblast: HUF	0.8808	0.738	0.717	0.6092	0.541	0.501	0.469	0.46	0.451
0.1 µM, coculture fibroblast: Hs27A	0.8734	0.805	0.752	0.693	0.6332	0.6038	0.563	0.54669	0.4975
0.1 µM, coculture fibroblast: Hs343T	0.892	0.768	0.6997	0.679	0.615	0.592	0.562	0.544	0.544
0.1 µM, coculture fibroblast: WS1	0.831	0.708	0.656	0.555	0.502	0.49	0.465	0.467	0.465
1 µM, coculture fibroblast: C12385	0.839	0.69742	0.695	0.591	0.536	–	–	–	–
1 µM, coculture fibroblast: H6013	0.9196	0.879	0.862	0.856	0.836	–	–	–	–
1 µM, coculture fibroblast: H6019	0.784	0.7	0.679	0.58	0.5418	–	–	–	–
1 µM, coculture fibroblast: H6076	0.911	0.8304	0.783	0.777	0.731	–	–	–	–
1 µM, coculture fibroblast: H6231	0.8974	0.801	0.7484	0.714	0.653	–	–	–	–
1 µM, coculture fibroblast: HADF	0.913	0.8114	0.79	0.751	0.72	–	–	–	–
1 µM, coculture fibroblast: HCFa	0.878	0.825	0.791	0.742	0.694	–	–	–	–
1 µM, coculture fibroblast: HCPF	0.919	0.819	0.792	0.762	–	–	–	–	–
1 µM, coculture fibroblast: HHSteC	0.9157	0.823	0.775	0.726	–	–	–	–	–
1 µM, coculture fibroblast: HMF	0.861	0.76	0.7459	0.731	–	–	–	–	–
1 µM, coculture fibroblast: HPFa	0.9177	0.8686	0.78635	0.724	–	–	–	–	–
1 µM, coculture fibroblast: HUF	0.848	0.74	0.694	0.583	–	–	–	–	–
1 µM, coculture fibroblast: Hs27A	0.8735	0.828	0.769	0.734	–	–	–	–	–
1 µM, coculture fibroblast: Hs343T	0.895	0.7955	0.759	0.739	–	–	–	–	–
1 µM, coculture fibroblast: WS1	0.8124	0.702	0.637	0.537	–	–	–	–	–
